PubChem BioAssay AID1259308, NCATS – 2017
In all, the deposit lists about 59,000 reagents; below is a random part of them. About 1,510 of all reagents (2.6%) count as active. 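Calls use total luciferase alone and ignore viability, so some active siRNAs may act by altering cell number.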 The numbers tell different reagents against one gene apart. Further read-outs or replicates are left out here.

Screen: 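Knock-downs that increase output of a recombinant reporter protein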 (primary screen)
System: human HEK293 embryonic kidney cells stably expressing firefly luciferase (HEK-CMV-Luc2-Hygro)
Reagents: single siRNA against human genes, 0.8 pmol siRNA per well
Time to read-out: 72 h
Read-out: 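Luciferase light (ONE-Glo) measured on one replicate plate set and viability (CellTiter-Glo) on the other, scaled to a negative control siRNA, with robust z-scores and luciferase per cell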
Direction: total luciferase, z-score and total luciferase, % of control: higher = more reporter protein produced
Rule for the call: 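An siRNA counts as active if its total luciferase robust z-score exceeds 3; genes with two or more such siRNAs out of three were retested with fresh siRNAs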
Calls: active = raised luciferase; inactive = no rise

For CCDC30 (coiled-coil domain containing 30) #1, what does the deposit list?
total luciferase, z-score: -1.63; total luciferase, % of control: 49.6; Call: inactive

Which result is listed for CCDC30 (coiled-coil domain containing 30) #2?
total luciferase, z-score: 0.0706; total luciferase, % of control: 83.3; Call: inactive

For CCDC30 (coiled-coil domain containing 30) #3, what was measured?
total luciferase, z-score: -1.01; total luciferase, % of control: 61.9; Call: inactive

For CCDC30 (coiled-coil domain containing 30) #4, what does the deposit list?
total luciferase, z-score: 0.889; total luciferase, % of control: 99.6; Call: inactive

With CCDC30 (coiled-coil domain containing 30) #5, what does the deposit list?
total luciferase, z-score: 0.745; total luciferase, % of control: 96.7; Call: inactive

With CCDC30 (coiled-coil domain containing 30) #6, what was measured?
total luciferase, z-score: -0.841; total luciferase, % of control: 65.2; Call: inactive

Which result is listed for DPH3 (diphthamide biosynthesis 3) #1?
total luciferase, z-score: -0.0977; total luciferase, % of control: 79.9; Call: inactive

With DPH3 (diphthamide biosynthesis 3) #2, what does the deposit list?
total luciferase, z-score: 3.13; total luciferase, % of control: 144; Call: active

With DPH3 (diphthamide biosynthesis 3) #3, what does the deposit list?
total luciferase, z-score: -0.432; total luciferase, % of control: 73.3; Call: inactive

Which result is listed for FEV (FEV transcription factor, ETS family member) #1?
total luciferase, z-score: -0.36; total luciferase, % of control: 74.7; Call: inactive

With FEV (FEV transcription factor, ETS family member) #2, how do the results read?
total luciferase, z-score: -0.32; total luciferase, % of control: 75.5; Call: inactive

For FEV (FEV transcription factor, ETS family member) #3, what does the deposit list?
total luciferase, z-score: -0.101; total luciferase, % of control: 79.9; Call: inactive

What is on record for TTN (titin) #1?
total luciferase, z-score: -0.883; total luciferase, % of control: 64.3; Call: inactive

What did the screen give for TTN (titin) #2?
total luciferase, z-score: 0.0172; total luciferase, % of control: 82.2; Call: inactive

Which result is listed for TTN (titin) #3?
total luciferase, z-score: 0.249; total luciferase, % of control: 86.8; Call: inactive

Which result is listed for SOCS2-AS1 (SOCS2 antisense RNA 1) #1?
total luciferase, z-score: -1.58; total luciferase, % of control: 50.5; Call: inactive

How did the screen score SOCS2-AS1 (SOCS2 antisense RNA 1) #2?
total luciferase, z-score: 0.0739; total luciferase, % of control: 83.4; Call: inactive

What did the screen give for SOCS2-AS1 (SOCS2 antisense RNA 1) #3?
total luciferase, z-score: 0.471; total luciferase, % of control: 91.3; Call: inactive

With FAM86B2 (family with sequence similarity 86 member B2) #1, what does the deposit list?
total luciferase, z-score: 1.6; total luciferase, % of control: 114; Call: inactive

What did the screen give for FAM86B2 (family with sequence similarity 86 member B2) #2?
total luciferase, z-score: -0.107; total luciferase, % of control: 79.8; Call: inactive

What is on record for FAM86B2 (family with sequence similarity 86 member B2) #3?
total luciferase, z-score: -2.06; total luciferase, % of control: 40.8; Call: inactive

What did the screen give for RBL1 (RB transcriptional corepressor like 1) #1?
total luciferase, z-score: 1.6; total luciferase, % of control: 114; Call: inactive

What did the screen give for RBL1 (RB transcriptional corepressor like 1) #2?
total luciferase, z-score: 0.763; total luciferase, % of control: 97.1; Call: inactive

With RBL1 (RB transcriptional corepressor like 1) #3, what was measured?
total luciferase, z-score: 0.76; total luciferase, % of control: 97; Call: inactive

With MCF2 (MCF.2 cell line derived transforming sequence) #1, how do the results read?
total luciferase, z-score: -0.196; total luciferase, % of control: 78; Call: inactive

What did the screen give for MCF2 (MCF.2 cell line derived transforming sequence) #2?
total luciferase, z-score: 0.111; total luciferase, % of control: 84.1; Call: inactive

With MCF2 (MCF.2 cell line derived transforming sequence) #3, how do the results read?
total luciferase, z-score: 0.541; total luciferase, % of control: 92.7; Call: inactive

Reprinted from the listing, 5 entries:
FEV (FEV transcription factor, ETS family member) #2 — total luciferase, z-score: -0.32; total luciferase, % of control: 75.5; Call: inactive
FEV (FEV transcription factor, ETS family member) #3 — total luciferase, z-score: -0.101; total luciferase, % of control: 79.9; Call: inactive
TTN (titin) #1 — total luciferase, z-score: -0.883; total luciferase, % of control: 64.3; Call: inactive
TTN (titin) #2 — total luciferase, z-score: 0.0172; total luciferase, % of control: 82.2; Call: inactive
TTN (titin) #3 — total luciferase, z-score: 0.249; total luciferase, % of control: 86.8; Call: inactive

More reagents follow:
For LOC729047 (retired record) #1, what was measured?
total luciferase, z-score: 2.27; total luciferase, % of control: 127; Call: inactive

What is on record for LOC729047 (retired record) #2?
total luciferase, z-score: 0.531; total luciferase, % of control: 92.5; Call: inactive

For LOC729047 (retired record) #3, what does the deposit list?
total luciferase, z-score: -0.361; total luciferase, % of control: 74.7; Call: inactive

For ZNF615 (zinc finger protein 615) #1, what does the deposit list?
total luciferase, z-score: -0.241; total luciferase, % of control: 77.1; Call: inactive

With ZNF615 (zinc finger protein 615) #2, what does the deposit list?
total luciferase, z-score: 0.927; total luciferase, % of control: 100; Call: inactive

With ZNF615 (zinc finger protein 615) #3, what does the deposit list?
total luciferase, z-score: -0.671; total luciferase, % of control: 68.5; Call: inactive

How did the screen score TMPRSS13 (transmembrane serine protease 13) #1?
total luciferase, z-score: 0.43; total luciferase, % of control: 90.4; Call: inactive

With TMPRSS13 (transmembrane serine protease 13) #2, what does the deposit list?
total luciferase, z-score: 0.636; total luciferase, % of control: 94.5; Call: inactive

With TMPRSS13 (transmembrane serine protease 13) #3, how do the results read?
total luciferase, z-score: -1.09; total luciferase, % of control: 60.1; Call: inactive

With NIPSNAP2 (nipsnap homolog 2) #1, what does the deposit list?
total luciferase, z-score: 0.198; total luciferase, % of control: 85.8; Call: inactive

What did the screen give for NIPSNAP2 (nipsnap homolog 2) #2?
total luciferase, z-score: 0.793; total luciferase, % of control: 97.7; Call: inactive

Which result is listed for NIPSNAP2 (nipsnap homolog 2) #3?
total luciferase, z-score: -0.615; total luciferase, % of control: 69.7; Call: inactive

How did the screen score SLC26A7 #1?
total luciferase, z-score: 2.94; total luciferase, % of control: 140; Call: inactive

How did the screen score SLC26A7 #2?
total luciferase, z-score: -1.61; total luciferase, % of control: 50; Call: inactive

For SLC26A7 #3, how do the results read?
total luciferase, z-score: 1.12; total luciferase, % of control: 104; Call: inactive
